In this experiment the target is E. coli DnaK (Escherichia coli) (UniProt P0A6Y8). Nature of the experiment: fluorescence polarisation; competition screen at one concentration: unlabeled peptide 5 µmol/L with 5 µmol/L E. coli DnaK, or 35 µmol/L with 16 µmol/L S. aureus DnaK, 90 min 28°C, then Cf-ARV-1502 (10 µL of 80 nmol/L), 90 min 28°C; duplicates; FP normalized to ARV-1502; both purified.

Chains of the proteins cited; added tags and fusions are not shown. Lines headed by an entry give the natural chain unless they say otherwise; changes in a name come on top.
UniProt P0A6Y8: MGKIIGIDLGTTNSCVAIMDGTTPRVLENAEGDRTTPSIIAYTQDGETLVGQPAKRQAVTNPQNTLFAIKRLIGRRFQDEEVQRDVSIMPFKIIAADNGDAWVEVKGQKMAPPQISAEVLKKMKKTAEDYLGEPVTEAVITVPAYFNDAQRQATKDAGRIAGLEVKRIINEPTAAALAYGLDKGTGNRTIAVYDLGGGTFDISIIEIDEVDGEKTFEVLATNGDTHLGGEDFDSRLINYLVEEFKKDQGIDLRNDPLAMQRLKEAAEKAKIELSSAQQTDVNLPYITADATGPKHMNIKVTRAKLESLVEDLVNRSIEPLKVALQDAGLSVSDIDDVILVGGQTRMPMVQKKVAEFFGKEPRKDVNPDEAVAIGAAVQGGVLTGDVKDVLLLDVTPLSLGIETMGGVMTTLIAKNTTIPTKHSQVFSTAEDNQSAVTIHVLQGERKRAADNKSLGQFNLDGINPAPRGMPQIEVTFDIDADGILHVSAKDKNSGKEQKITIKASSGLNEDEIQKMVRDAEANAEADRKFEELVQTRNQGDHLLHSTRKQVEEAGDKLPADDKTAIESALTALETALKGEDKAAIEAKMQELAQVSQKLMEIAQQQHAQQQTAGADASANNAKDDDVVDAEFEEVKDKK

These are yes or no findings as the source states them, for the method shown.

Take RPDKPRPDKPRPRPPRPVR (N-terminal Chex (1-amino-cyclohexane carboxylic acid); C-terminal amide) [peptide 108]: the binding entry is recorded as “no binding”. As to RPDKPRPKKPRPRPPRPVR (N-terminal Chex (1-amino-cyclohexane carboxylic acid); C-terminal amide) [peptide 122], the binding result is “no binding”.

The values above are taken from PMC8864165, “Functional Effects of ARV-1502 Analogs Against Bacterial Hsp70 and Implications for Antimicrobial Activity” (Frontiers in Chemistry, 2022).
